Four substances from publication PMC12150175 can be followed below.

The chains behind the UniProt entries cited, without tags or fusion partners.
UniProt P35579: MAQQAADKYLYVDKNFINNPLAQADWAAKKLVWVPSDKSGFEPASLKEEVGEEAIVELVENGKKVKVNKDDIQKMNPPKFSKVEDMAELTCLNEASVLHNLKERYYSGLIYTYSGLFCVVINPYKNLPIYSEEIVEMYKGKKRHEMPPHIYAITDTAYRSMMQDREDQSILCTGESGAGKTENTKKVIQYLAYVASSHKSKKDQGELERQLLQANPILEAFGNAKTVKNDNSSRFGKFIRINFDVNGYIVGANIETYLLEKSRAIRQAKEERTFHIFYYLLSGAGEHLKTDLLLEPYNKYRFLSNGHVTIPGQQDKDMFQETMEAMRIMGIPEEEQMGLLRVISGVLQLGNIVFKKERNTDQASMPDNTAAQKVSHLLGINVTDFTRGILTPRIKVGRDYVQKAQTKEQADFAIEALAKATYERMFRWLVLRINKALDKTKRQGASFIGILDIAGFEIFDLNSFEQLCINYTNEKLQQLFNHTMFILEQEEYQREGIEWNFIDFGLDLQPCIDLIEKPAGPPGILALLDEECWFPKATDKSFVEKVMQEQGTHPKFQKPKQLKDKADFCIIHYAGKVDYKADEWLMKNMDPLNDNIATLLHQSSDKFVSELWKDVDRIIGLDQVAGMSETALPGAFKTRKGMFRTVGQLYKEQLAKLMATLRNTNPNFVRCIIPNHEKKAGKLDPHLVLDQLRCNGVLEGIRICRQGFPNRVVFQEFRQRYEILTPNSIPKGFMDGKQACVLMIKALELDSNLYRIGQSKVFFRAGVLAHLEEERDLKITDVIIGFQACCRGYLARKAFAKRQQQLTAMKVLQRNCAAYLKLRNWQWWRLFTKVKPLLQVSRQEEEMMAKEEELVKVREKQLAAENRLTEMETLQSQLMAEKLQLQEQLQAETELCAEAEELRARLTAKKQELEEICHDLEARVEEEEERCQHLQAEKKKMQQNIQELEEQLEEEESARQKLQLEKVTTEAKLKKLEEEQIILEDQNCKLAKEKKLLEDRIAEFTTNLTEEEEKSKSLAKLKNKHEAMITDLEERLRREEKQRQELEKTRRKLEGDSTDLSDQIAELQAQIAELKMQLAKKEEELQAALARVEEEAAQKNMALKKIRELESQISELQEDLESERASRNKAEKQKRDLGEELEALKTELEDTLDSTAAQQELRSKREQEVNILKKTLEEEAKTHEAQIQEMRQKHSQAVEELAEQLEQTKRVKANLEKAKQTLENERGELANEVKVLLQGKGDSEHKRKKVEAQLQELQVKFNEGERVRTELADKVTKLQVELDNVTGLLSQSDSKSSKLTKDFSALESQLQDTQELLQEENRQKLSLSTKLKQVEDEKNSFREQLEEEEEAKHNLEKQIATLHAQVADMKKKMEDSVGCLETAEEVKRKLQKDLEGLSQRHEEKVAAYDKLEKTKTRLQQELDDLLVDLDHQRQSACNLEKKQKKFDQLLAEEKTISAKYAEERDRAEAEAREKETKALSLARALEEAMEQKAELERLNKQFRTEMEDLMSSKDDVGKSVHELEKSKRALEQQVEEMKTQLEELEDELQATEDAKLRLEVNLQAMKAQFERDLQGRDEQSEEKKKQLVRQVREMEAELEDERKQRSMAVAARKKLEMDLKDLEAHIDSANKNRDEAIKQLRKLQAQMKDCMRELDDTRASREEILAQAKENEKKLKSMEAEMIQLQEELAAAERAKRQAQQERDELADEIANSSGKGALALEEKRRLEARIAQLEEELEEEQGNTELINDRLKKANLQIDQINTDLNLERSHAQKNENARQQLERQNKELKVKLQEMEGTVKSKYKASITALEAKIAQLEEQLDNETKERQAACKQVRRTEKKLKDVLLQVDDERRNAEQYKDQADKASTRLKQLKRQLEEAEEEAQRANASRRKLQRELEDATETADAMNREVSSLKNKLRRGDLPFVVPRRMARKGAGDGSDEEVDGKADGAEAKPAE
UniProt P68400: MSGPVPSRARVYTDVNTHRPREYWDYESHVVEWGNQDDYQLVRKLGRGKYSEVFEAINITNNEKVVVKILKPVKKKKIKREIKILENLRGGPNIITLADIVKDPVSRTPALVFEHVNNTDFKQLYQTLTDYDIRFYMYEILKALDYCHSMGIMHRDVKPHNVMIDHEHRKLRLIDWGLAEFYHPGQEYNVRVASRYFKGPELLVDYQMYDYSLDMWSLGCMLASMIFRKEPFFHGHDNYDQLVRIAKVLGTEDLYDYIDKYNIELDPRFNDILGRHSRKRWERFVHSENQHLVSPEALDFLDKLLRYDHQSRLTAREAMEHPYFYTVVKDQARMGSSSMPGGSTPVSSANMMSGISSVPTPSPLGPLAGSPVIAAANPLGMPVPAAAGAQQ

Results are given in words; binding and its absence hold for the method and conditions named. In cells and extracts the contact can be indirect. Some results given as binding are weak or reduced against the parent protein; the word gives no strength. For some of these results: Tags and fused reporters may be left off the sequences shown.

In assay [1] the target is T1, MOTS-c fused with green fluorescent protein (MOTS-c-GFP) (human).
T1 sequence: MRWQEMGYIFYPRKLR
Put plainly: co-IP; IP with GFP antibodies from lysates of MOTS-c-GFP HPMVECs under normoxia or HR, also after siRNA-MYH9 or siRNA-NC; Protein A/G magnetic beads, antibody overnight at 4 °C; Western blot.

Assay [2] addresses myosin heavy chain 9 (MYH9) (human (endogenous in HPMVECs)) (UniProt P35579). As to the kind of experiment: co-IP; IP of endogenous MYH9 from lysates of MOTS-c-GFP HPMVECs under normoxia or HR; Protein A/G magnetic beads, antibody overnight at 4 °C; Western blot. A general note: A western blot detects proteins with antibodies after separation by electrophoresis.

As to “MYH9 phosphorylated at Ser1943 (p-MYH9) (from UniProt P35579 1-1960)”, in assay [1], the binding result was “binds”.

Regarding “myosin heavy chain 9 (MYH9) (from UniProt P35579 1-1960)”, in assay [1], the binding result is “binds”. Regarding “PKCα (from UniProt P17252 1-672) (enzyme)”, the binding result in assay [2] was “binds”. As for “casein kinase II subunit alpha (CK2A) (from UniProt P68400 1-391) (enzyme)”, the binding result in assay [2] was “binds”.
